Experimental data from patent US12258368B2, “Disulfide-linked reversible terminators” (CENTRILLION TECHNOLOGY HOLDINGS CORPORATION, priority 2018, dated 2025).

Assay: Cleavage studies: removal of 3′ blocking group and label from the incorporated terminator

Row | SMILES | cleavage of the label and the blocking group (FIG. 2 lane 5, reagent not given) | cleavage of the 3′ blocking group along with the labeled linker tag (after the treatment with DTT, FIG. 4 lane 5)
1 | CC(=O)SCO[C@H]1C[C@H](n2cc(C#CCNC(=O)OC(C)(C)C)c(=O)[nH]c2=O)O[C@@H]1COP(=O)(O)OP(=O)(O)OP(=O)(O)O [compound 60, S-((((2R,3S,5R)-5-(5-(3-((tert-butoxycarbonyl)amino)prop-1-yn-1-yl)-2,4-dioxo-3,4-dihydropyrimidin-1 (2H)-yl)-2-(((hydroxy((hydroxy(phosphonooxy)phosphoryl)oxy)phosphoryl)oxy)methyl)tetrahydrofuran-3-yl)oxy)methyl) ethanethioate] | cleavage of the label and the blocking group | –
2 | CSSCO[C@@H]1C[C@H](n2cc(C#CCNC(=O)OCCSSCCNC(=O)c3ccc(C4=c5cc6c(cc5Oc5cc7c(cc54)C(CS(=O)(=O)O)=CC(C)(C)N7)=NC(C)(C)C=C6CS(=O)(=O)O)cc3C(=O)O)c(=O)[nH]c2=O)O[C@@H]1COP(=O)(O)OP(=O)(O)OP(=O)(O)O [compound 75, (6-(3-carboxy-4-((2-((2-(((3-(1-((2R,4R,5R)-5-(((hydroxy((hydroxy(phosphonooxy)phosphoryl)oxy)phosphoryl)oxy)methyl)-4-((methyldisulfaneyl)methoxy)tetrahydrofuran-2-yl)-2,4-dioxo-1,2,3,4-tetrahydropyrimidin-5-yl)prop-2-yn-1-yl)carbamoyl)oxy)ethyl)disulfaneyl)ethyl)carbamoyl)phenyl)-2,2,10,10-tetramethyl-8-(sulfomethyl)-10,11-dihydro-2H-pyrano[3,2-g:5,6-g′]diquinolin-1-ium-4-yl)methanesulfonate] | – | simultaneous cleavage of the 3′ blocking group along with the labeled linker tag can be observed
